Experimental data: publication PMC12283363
These are yes or no findings as the source states them, for the method shown. For some assays here: A result given as binding can be weak or reduced; the word gives no strength.

Legend:
Assay in all cases: two-hybrid; Gal4 system (pGBKT7 / pGADT7, Takara); bait and prey plasmids co-transformed into yeast strain Y2HGold, 30 °C; selection on TDO (-His/-Leu/-Trp) or QDO (-Ade/-His/-Leu/-Trp) for five days; empty vectors as controls
[1] = biological target: T1, ZYP1b N-terminal region (amino acids 49-400) (Arabidopsis thaliana) (UniProt P61430)
T1 sequence: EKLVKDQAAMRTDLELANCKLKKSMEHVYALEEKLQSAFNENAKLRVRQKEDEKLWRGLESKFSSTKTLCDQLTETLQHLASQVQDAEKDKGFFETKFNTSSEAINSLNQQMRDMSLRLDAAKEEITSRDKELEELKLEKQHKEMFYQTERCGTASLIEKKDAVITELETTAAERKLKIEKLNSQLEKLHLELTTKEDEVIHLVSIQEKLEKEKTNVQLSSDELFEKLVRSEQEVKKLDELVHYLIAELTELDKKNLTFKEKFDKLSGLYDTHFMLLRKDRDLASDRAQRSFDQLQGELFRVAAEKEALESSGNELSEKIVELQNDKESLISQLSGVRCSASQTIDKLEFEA

[2] = biological target: T2, PRD3 (Arabidopsis thaliana) (Arabidopsis thaliana) (UniProt Q0WWX5)
T2 sequence: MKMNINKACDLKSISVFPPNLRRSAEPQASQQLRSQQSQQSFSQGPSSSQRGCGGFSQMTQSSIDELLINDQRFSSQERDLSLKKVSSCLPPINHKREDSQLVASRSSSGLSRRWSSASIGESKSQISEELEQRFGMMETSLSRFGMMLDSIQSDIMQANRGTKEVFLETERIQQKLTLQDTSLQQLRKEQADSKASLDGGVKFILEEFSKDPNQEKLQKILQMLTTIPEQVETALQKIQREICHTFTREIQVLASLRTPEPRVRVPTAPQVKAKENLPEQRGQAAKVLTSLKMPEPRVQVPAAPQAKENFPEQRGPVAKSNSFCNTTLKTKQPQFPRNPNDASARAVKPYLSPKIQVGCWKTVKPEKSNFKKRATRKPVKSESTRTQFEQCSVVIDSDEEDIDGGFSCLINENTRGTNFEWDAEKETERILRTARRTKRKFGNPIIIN

[3] = biological target: T3, MER3 (Arabidopsis thaliana) (Arabidopsis thaliana) (UniProt Q5D892)
T3 sequence: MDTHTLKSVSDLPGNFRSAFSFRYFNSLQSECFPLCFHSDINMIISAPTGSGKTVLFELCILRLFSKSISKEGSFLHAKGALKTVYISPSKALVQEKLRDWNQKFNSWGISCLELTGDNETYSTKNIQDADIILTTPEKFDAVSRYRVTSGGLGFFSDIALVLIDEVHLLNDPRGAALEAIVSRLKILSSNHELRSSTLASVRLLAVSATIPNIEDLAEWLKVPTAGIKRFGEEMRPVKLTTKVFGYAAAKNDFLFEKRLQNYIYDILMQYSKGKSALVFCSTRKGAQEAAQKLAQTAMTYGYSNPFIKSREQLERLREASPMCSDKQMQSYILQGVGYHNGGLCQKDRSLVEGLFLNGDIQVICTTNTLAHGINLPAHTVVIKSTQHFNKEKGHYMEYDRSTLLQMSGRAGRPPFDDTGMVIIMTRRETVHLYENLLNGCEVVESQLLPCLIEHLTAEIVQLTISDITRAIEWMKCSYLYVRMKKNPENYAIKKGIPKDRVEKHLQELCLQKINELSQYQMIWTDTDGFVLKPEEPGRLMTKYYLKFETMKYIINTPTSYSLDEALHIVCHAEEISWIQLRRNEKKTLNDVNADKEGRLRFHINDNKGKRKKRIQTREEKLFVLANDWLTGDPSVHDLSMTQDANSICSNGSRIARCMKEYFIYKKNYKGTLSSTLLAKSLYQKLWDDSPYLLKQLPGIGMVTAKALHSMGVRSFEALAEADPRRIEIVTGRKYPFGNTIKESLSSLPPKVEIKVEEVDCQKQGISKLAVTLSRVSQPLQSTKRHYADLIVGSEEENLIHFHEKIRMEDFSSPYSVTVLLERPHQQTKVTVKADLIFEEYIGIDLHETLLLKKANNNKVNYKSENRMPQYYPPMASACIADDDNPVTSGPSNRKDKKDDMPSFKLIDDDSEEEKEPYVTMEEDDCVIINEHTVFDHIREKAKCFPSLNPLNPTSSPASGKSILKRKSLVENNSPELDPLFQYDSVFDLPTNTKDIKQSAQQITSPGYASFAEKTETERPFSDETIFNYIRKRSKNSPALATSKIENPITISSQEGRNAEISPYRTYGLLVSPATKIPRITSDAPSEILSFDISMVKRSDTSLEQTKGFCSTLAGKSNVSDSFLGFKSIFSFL

[4] = biological target: T4, HEI10 (Arabidopsis thaliana) (Arabidopsis thaliana) (UniProt F4HRI2)
T4 sequence: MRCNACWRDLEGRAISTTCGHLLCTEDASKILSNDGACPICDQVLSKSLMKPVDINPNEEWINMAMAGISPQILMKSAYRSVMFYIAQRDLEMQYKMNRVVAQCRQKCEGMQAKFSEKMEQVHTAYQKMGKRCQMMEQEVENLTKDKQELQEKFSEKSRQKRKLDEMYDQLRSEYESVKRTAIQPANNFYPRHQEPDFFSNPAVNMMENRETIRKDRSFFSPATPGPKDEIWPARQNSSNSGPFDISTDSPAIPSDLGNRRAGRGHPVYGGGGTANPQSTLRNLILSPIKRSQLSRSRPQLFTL

[5] = biological target: T5, ZYP1a (Arabidopsis thaliana), full-length (Arabidopsis thaliana) (UniProt Q9LME2)
T5 sequence: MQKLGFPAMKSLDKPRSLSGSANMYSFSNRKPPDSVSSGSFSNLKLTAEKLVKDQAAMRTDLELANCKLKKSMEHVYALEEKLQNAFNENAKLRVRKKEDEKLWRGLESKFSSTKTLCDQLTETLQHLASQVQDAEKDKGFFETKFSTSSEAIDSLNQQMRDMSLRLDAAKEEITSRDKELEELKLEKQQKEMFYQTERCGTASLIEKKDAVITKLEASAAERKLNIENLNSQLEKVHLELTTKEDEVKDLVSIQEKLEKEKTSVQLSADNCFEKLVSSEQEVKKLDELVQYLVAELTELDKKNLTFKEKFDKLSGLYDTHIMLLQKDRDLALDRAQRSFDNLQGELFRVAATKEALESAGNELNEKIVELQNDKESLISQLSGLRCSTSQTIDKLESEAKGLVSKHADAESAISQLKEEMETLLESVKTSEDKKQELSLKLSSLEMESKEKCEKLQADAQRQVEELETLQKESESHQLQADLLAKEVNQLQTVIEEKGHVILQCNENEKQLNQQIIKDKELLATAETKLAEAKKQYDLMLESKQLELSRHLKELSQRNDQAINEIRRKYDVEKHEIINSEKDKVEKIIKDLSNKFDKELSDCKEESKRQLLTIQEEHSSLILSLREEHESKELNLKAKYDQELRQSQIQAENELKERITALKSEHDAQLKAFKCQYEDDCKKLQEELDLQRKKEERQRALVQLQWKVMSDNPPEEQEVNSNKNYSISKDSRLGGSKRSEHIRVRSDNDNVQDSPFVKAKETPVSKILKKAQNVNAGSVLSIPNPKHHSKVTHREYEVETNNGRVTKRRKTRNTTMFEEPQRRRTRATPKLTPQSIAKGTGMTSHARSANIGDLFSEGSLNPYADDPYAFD

[6] = biological target: T6, ZYP1b (Arabidopsis thaliana), full-length (Arabidopsis thaliana) (UniProt P61430)
T6 sequence: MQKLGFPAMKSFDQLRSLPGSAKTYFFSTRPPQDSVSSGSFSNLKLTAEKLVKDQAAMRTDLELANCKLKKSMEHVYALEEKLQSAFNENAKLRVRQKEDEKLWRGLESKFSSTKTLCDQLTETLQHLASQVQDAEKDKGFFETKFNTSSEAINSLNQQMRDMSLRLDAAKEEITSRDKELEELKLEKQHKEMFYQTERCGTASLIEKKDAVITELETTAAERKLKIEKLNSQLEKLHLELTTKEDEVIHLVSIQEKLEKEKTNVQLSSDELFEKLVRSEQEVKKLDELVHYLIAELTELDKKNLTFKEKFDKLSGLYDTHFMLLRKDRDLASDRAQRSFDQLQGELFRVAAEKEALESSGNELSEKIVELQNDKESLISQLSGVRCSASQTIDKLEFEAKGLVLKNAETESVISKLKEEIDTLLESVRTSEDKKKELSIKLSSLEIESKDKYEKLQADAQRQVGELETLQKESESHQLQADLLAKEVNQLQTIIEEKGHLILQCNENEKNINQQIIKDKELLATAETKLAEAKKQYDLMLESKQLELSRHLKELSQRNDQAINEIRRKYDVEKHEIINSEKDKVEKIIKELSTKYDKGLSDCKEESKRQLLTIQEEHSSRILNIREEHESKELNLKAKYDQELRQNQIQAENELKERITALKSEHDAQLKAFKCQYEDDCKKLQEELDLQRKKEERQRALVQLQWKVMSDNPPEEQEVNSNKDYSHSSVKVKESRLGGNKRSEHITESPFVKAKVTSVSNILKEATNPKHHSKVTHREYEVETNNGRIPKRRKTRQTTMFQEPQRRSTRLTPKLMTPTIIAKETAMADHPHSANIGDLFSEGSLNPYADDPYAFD

[7] = biological target: T7, PTD (Arabidopsis thaliana) (Arabidopsis thaliana) (UniProt F4IDW9)
T7 sequence: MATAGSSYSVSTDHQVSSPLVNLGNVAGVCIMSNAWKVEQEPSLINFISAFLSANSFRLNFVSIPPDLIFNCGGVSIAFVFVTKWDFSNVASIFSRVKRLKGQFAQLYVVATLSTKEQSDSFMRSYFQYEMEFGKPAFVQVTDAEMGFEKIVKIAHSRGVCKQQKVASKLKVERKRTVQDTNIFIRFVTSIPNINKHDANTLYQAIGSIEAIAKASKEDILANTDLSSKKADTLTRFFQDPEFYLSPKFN

Row | binding [1] | binding [2] | binding [3] | binding [4] | binding [5] | binding [6] | binding [7] | Substance
1 | binds | no binding | no binding | no binding | binds | binds | no binding | SCEP3 (Arabidopsis thaliana), full-length (from UniProt A0A1P8B5R8)
2 |  |  |  |  |  | binds |  | SCEP3 C-terminal region (amino acids 734-803) (Arabidopsis thaliana) (domain or fragment)
